In PubChem BioAssay AID2417 (National Center for Advancing Translational Sciences (NCATS), 2010):
About 4,300 (3.1%) of roughly 140,000 compounds were called active. Inconclusive results, whose numbers are uncertain, are shown with a selection of clear calls.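 How the source made its calls: active means readout at or below -70, meaning at least 70% loss of cells showing the perinucleolar compartment, a nuclear body marking cancer cells; inconclusive means readout between -30 and a set limit; inactive means the rest.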

test: High Content Assay for Compounds that inhibit the Assembly of the Perinucleolar Compartment; conditions: PC3M PTB-GFP, PNC prevalence imaging, 16 h; at 10 µM; hits give low values;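 further: plate controls were DMSO wells for no effect and camptothecin positive control wells for full effect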
How it was run: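 PC3M cells stably expressing PTB-GFP, 750–1000 cells/well, treated 16 h at 37 °C with compound (23 nl of library stock), in duplicate. After paraformaldehyde fixation and Hoechst stain, imaged at 20x; PNC prevalence scored by image analysis.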

| Compound | activity change (PNC), negative = inhibition |
| --- | --- |
| CS(=O)(=O)N(CC(=O)N1CCCCCC1)c1ccc(Br)cc1 | inconclusive: -46.8% |
| CCC(=O)Nc1cccc(SC)c1 | inconclusive: -48.8% |
| Cc1ccc(C(=O)CNc2ccc(F)cc2)cc1 | inactive: 23.7% |
| CCOC(=O)CSc1nc(C)c2cc(OC)ccc2n1 | inactive: 58.4% |
| CCC(=O)Nc1ncc2c(n1)CC(c1ccco1)CC2=O (centres undefined) | inconclusive: -31.5% |
| O=C1NN(c2ccccc2)C(=O)/C1=C/c1coc2ccccc2c1=O | inconclusive: -57.7% |
| CCOC(=O)c1cc2n(c1C)-c1ccccc1C2=O | inconclusive: -59.9% |
| O=C(Nc1cccc([N+](=O)[O-])c1)c1ccc2c(c1)OCO2 | inconclusive: -67.5% |
| COc1ccc(C2C(C(=O)NCc3ccccn3)c3cc(OC)c(OC)cc3C(=O)N2C)cc1 (centres undefined) | inconclusive: -59.5% |
| COc1ccc(NS(=O)(=O)Cc2ccccc2)cc1OC | inactive: 6.58% |
| COC(=O)C1=C(CN2CCSCC2)NC(=O)NC1c1cc(C)ccc1C (centres undefined) | inconclusive: -45.8% |
| O=C(C1CCN(S(=O)(=O)c2ccc(Cl)cc2)CC1)N1CCOCC1 | inconclusive: -30.7% |
| Cc1[nH]c2ccccc2c1C(=O)CSc1nc2ccccc2c(=O)n1CCCN1CCOCC1 | inconclusive: -44.2% |
| O=C(Nc1nc2c(Cl)cccc2s1)c1ccc(Br)o1 | inconclusive: -32.7% |
| O=C(Nc1cccc(F)c1)c1cc(S(=O)(=O)N2CCC(C(=O)O)CC2)ccc1F | inactive: -17.4% |
| COc1ccc(C2C(C(=O)O)CCC(=O)N2c2ccc(OC)cc2)cc1 (centres undefined) | inactive: -16.8% |
| Cc1ccc2cc(C#N)c(SCC(=O)NCC3CCCO3)nc2c1 (centres undefined) | inactive: 21.2% |
| CC(=O)Nc1ccc(NC(=O)CSc2nnc(C3CC3)n2C)cc1 | inconclusive: -60% |
| COC(=O)[C@@]1(Cc2ccc(OC)cc2)[C@@H]2C(=CC(=O)[C@H]2CC(=O)C(=O)N2CCCC2)CN1C(=O)c1ccccc1 | inactive: 73.4% |
| O=C(N/N=C/c1cccs1)c1ccc(NC(=O)c2ccccc2Cl)cc1 | inactive: -30% |
| O=C1Nc2ccccc2/C1=N\c1sc2c(c1C(=O)Nc1ccccc1)CCCC2 | inactive: 54.6% |
| CC(=O)Nc1c(C)cc(S(C)(=O)=O)cc1C | inconclusive: -73.8% |
| CCOC(=O)CS(=O)(=O)c1nc(-c2ccccc2)cc(C(F)(F)F)n1 | inconclusive: -39.1% |

| Compound | activity change (PNC), negative = inhibition |
| --- | --- |
| Cc1cccc2cc(C#N)c(SCC(=O)Nc3ccccc3N3CCOCC3)nc12 | inconclusive: -36.4% |
| c1ccc(-c2cn3c4c(sc3n2)CCCC4)cc1 | inconclusive: -49.9% |
| Clc1cccc(-c2nn3c(COc4ccccc4)nnc3s2)c1 | inactive: -0.901% |
| COc1cccc(N2CCN(C3CC(=O)N(c4cccc(Cl)c4)C3=O)CC2)c1 (centres undefined) | inactive: 5.29% |
| O=C(NCc1cccs1)NC1CCCCC1 | inconclusive: -57.8% |
| CCCCCCc1ccc(-c2ncc(N)cn2)cc1 | inconclusive: -36.6% |
| C#CC1(O)CC(C)NCC1(C)CCC#N (centres undefined) | inactive: -16.9% |
| COc1ccc(S(=O)(=O)NC(CC(=O)NCc2ccco2)C(C)C)cc1 (centres undefined) | inconclusive: -34.1% |
| CC(C)Oc1ccccc1C1CC(=O)Nc2cc3c(cc21)OCO3 (centres undefined) | active: -80.6% |
| CCOc1cccc(OCCOc2ccccc2[N+](=O)[O-])c1 | inactive: 36.5% |
| Oc1c(/C=N/Nc2cccc3cccnc23)ccc2ccccc12 | inconclusive: -45% |
| Cc1ccc2c(CSc3nc4nc(C)cc(C)n4n3)cc(=O)oc2c1 | inconclusive: -52.8% |
| COC(=O)C1C(=O)C=C(Nc2ccc(F)cc2F)CC1c1ccc(OC)cc1 (centres undefined) | inconclusive: -45% |
| O=C(NC(Cc1ccccc1)c1ccc2c(c1)OCCCO2)c1ccccc1F (centres undefined) | inconclusive: -48.9% |
| CC(C)CNC(=O)C1CCCN(S(=O)(=O)c2ccc(-n3cnnn3)cc2)C1 (centres undefined) | inconclusive: -31.3% |
| Cc1noc(NS(=O)(=O)c2ccc(NC(=O)Nc3ccc(Cl)c(Cl)c3)cc2)c1C | inconclusive: -42.4% |
| O=C(Cn1cc2c(n1)CCCCC2)Nc1ccc(F)cc1F | inconclusive: -37.1% |
| Cn1c(CN2CCN(C(=O)c3ccc(F)cc3)CC2)nc2cc([N+](=O)[O-])ccc21 | inconclusive: -30.9% |
| Cc1cc(NC(=O)CSc2nc3ccccc3c(=O)n2Cc2ccccc2)no1 | inconclusive: -73.5% |
| Cn1c(=O)c(-c2cc(Br)ccc2N)nc2ccccc21 | inconclusive: -59.5% |
| O=C(CCCN1CCC(c2ccccc2)C1)c1ccc2c(c1)OCCO2 (centres undefined) | inactive: 9.17% |
| COC(=O)c1ccc(CSc2nc3ccccc3s2)o1 | inconclusive: -42.4% |
| CS(=O)(=O)N(Cc1ccccc1)c1ccccc1C(=O)O | inconclusive: -39.5% |

Given bar-delimited: entries from further up.
Compound | activity change (PNC), negative = inhibition
Oc1c(/C=N/Nc2cccc3cccnc23)ccc2ccccc12 | inconclusive: -45%
Cc1ccc2c(CSc3nc4nc(C)cc(C)n4n3)cc(=O)oc2c1 | inconclusive: -52.8%
COC(=O)C1C(=O)C=C(Nc2ccc(F)cc2F)CC1c1ccc(OC)cc1 (centres undefined) | inconclusive: -45%
O=C(NC(Cc1ccccc1)c1ccc2c(c1)OCCCO2)c1ccccc1F (centres undefined) | inconclusive: -48.9%
CC(C)CNC(=O)C1CCCN(S(=O)(=O)c2ccc(-n3cnnn3)cc2)C1 (centres undefined) | inconclusive: -31.3%

Continued.

| Compound | activity change (PNC), negative = inhibition |
| --- | --- |
| O=C(Nc1ccccc1N1CCN(C(=O)c2ccc(Cl)cc2)CC1)c1cc(Br)ccc1Cl | inactive: 68.9% |
| Cc1ccccc1Nc1c(-c2ccncc2)nc2ccc(Br)cn12 | inconclusive: -55.8% |
| CC(C)(C)c1ccc(C(=O)NNC(=O)c2ccc(Cl)cc2)cc1 | inactive: 50.5% |
| Cc1ccc(S(=O)(=O)NCC(=O)NCc2ccncc2)cc1 | inconclusive: -40.7% |
| Cc1ccc(C)n1NC(=O)c1ccccc1O | inconclusive: -32.4% |
| CCOc1ccc(C2=Nn3c(nnc3-c3ccccc3OC)SC2)cc1 | active: -86.1% |
| Cc1nc2ccc(Cl)cc2c(-c2ccccc2Cl)c1CC(=O)O | inconclusive: -49.7% |
| CC1CN(C(=O)c2cc3c(=O)n4ccccc4nc3s2)CC(C)O1 (centres undefined) | inconclusive: -46.3% |
| Cc1ccc(-c2nn3c(C)nnc3s2)cc1NCc1c(F)cccc1Cl | inconclusive: -39.8% |
| Cn1ncc(C#N)c1/N=C/N1CCCCCC1 | inconclusive: -38.2% |
| N#Cc1ccccc1NC(=O)CSc1nnc(-c2ccccc2O)n1-c1ccccc1 | inconclusive: -35.3% |
| CC(C)(O[C@@H]1O[C@H](CO)[C@@H](O)[C@H](O)[C@H]1O)[C@H]1Cc2cc3ccc(=O)oc3cc2O1 | inconclusive: -65.3% |
| COc1cc(C(C(=O)NC(C)(C)C)N(C(=O)CNC(=O)c2cccs2)c2ccccc2)cc(OC)c1OC (centres undefined) | inconclusive: -63.5% |
| CCCCn1c(SCc2ncc(-c3ccccc3)o2)nc2cc(S(N)(=O)=O)ccc21 | inactive: 27% |
| CC(=O)Nc1ccc(OCC(=O)c2cc(C)ccc2C)cc1 | inconclusive: -61.2% |
| CC/C(=N\NC(=O)CSCc1ccccc1Cl)c1ccc2c(c1)OCCO2 | inconclusive: -52.9% |
| O=C(COC(=O)c1ccccc1)NCC1CCCO1 (centres undefined) | inactive: -6.91% |
| CCOC(=O)C1CCN(C(=O)CSc2cc(=O)n(CC)c3ccccc23)CC1 | inconclusive: -78.4% |
| COc1ccc(C2C(C(=O)N3CCOCC3)=C(C)NC3=C2C(=O)CC(C)(C)C3)cc1O (centres undefined) | inconclusive: -77.5% |
| Cn1c(=O)c2c(ncn2CC(=O)N2CCOCC2)n(C)c1=O | inconclusive: -51.3% |
| CSCCC(NS(=O)(=O)c1ccc(Cl)cc1)C(=O)OCC(=O)NC12CC3CC(CC(C3)C1)C2 (centres undefined) | inconclusive: -48.6% |
| c1cc(-c2nnc3sc(C4CCCCC4)nn23)ccn1 | inconclusive: -65.3% |
| CCCCS(=O)(=O)/C=C/[C@H]1[C@H](S(=O)(=O)CCCC)[C@H]2C=C[C@@H]1C2 | inconclusive: -59.6% |

| Compound | activity change (PNC), negative = inhibition |
| --- | --- |
| CCOC(=O)N1CCC(N2Cc3cccc(C(=O)Nc4ccc(F)cc4)c3C2=O)CC1 | inactive: 41.2% |
| Brc1nnc2n1-c1ccccc1Sc1ccccc1-2 | inactive: -23.1% |
| CCC/S(C)=N/S(=O)(=O)c1ccc(C)cc1 (centres undefined) | inconclusive: -53% |
| COC(=O)Nc1ccc(S(=O)(=O)NCCO)cc1 | inconclusive: -65.2% |
| Cn1c(SCC(=O)NCCc2ccccc2)nnc1-c1ccncc1 | inconclusive: -41.8% |
| Cc1cc2n(n1)C(c1c[nH]c3ccccc13)Nc1ccccc1-2 (centres undefined) | inconclusive: -74.7% |
| CCOC(=O)C1CCN(CC(O)COc2ccc(C(C)(C)CC)cc2)CC1 (centres undefined) | active: -80.6% |
| O=C(C1CCN(C2CC(=O)N(c3cccc(Cl)c3)C2=O)CC1)N1CCCC1 (centres undefined) | inactive: -18.3% |
| CCNC(=O)NC(=O)C(C)OC(=O)C1CCN(S(=O)(=O)c2ccc(C)c(C)c2)CC1 (centres undefined) | inconclusive: -58.6% |
| O=C(NCc1cccnc1)C(=O)NCC(c1ccco1)N1CCN(c2ccccc2F)CC1 (centres undefined) | inconclusive: -59.4% |
| Cc1ccc2nc3sc(C(=O)N4CCOCC4)c(N)c3cc2c1 | inactive: -11% |
| Cc1ccccc1Oc1nc2ccccn2c(=O)c1/C=C(\C#N)C(=O)Nc1c(C)n(C)n(-c2ccccc2)c1=O | inconclusive: -30.8% |
| CCn1c(SCC(=O)NCc2ccccc2)nc2c(c1=O)SC(C)C2 (centres undefined) | inconclusive: -30.8% |
| C[N+](C)(CC#Cc1ccccc1)CC(=O)c1ccc(Cl)cc1 | active: -90.3% |
| Cc1cccc(C(=O)N2CCCN(C(=O)c3cccc(C)c3)CC2)c1 | inconclusive: -35.8% |
| O=C(Cn1c(=O)oc2cc(S(=O)(=O)N3CCCCCC3)ccc21)NC1CCCCC1 | inconclusive: -33.1% |
| CCn1c(=O)c(=O)[nH]c2cc(C(=O)NCC3CCCCC3)ccc21 | inconclusive: -62.3% |
| N#C/C(=C\c1cccs1)Sc1nc2ccccc2s1 | inconclusive: -50.9% |
| Cc1nnc(NC(=O)c2cccc(S(=O)(=O)N3CCOCC3)c2)s1 | inconclusive: -38.2% |
| COc1cc(/C=N/NC(=Nc2ccc(C)cc2)c2nc3ccccc3s2)ccc1O | inactive: -19.4% |
